Here are results for 7 molecules from paper PMC7934584.

The chains behind the UniProt entries cited, without tags or fusion partners.
UniProt P42568: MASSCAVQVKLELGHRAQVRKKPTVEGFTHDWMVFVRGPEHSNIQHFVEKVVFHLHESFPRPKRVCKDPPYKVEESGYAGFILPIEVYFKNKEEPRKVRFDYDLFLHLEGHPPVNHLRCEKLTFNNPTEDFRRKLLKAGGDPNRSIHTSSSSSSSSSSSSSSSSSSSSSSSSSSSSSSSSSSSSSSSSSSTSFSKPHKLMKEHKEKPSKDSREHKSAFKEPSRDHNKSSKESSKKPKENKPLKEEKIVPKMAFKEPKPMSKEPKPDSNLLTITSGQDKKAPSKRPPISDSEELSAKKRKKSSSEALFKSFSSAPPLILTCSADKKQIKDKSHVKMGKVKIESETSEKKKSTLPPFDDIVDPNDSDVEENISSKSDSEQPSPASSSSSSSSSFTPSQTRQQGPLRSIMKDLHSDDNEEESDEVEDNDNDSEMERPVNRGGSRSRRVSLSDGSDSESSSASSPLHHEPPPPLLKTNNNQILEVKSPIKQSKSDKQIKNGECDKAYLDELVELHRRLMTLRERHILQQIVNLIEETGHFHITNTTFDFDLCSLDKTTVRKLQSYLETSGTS
UniProt O95863: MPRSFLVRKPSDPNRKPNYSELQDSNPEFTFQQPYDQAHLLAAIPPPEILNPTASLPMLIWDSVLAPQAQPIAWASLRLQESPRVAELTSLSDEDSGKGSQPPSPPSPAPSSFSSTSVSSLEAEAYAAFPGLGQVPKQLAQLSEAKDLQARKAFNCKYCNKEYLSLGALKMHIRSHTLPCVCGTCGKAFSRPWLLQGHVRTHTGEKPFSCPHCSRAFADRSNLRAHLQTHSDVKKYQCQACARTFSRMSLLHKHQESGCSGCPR
UniProt Q15672: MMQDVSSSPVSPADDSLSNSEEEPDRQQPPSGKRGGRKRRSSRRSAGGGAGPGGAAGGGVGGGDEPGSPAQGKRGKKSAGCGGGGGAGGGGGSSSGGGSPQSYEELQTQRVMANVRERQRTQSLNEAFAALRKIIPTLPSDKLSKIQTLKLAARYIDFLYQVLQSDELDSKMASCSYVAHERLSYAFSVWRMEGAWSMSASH

Results are given in words; binding and its absence hold for the method and conditions named. In cells and extracts the contact can be indirect. Some entries that bind do so weakly or less than the wild type.

For test [1], the target named is FLAG-AF9 (human (cDNA from HEK293T cells)) (UniProt P42568). The test can be described thus: co-IP; MDA-MB-231-FLAG-AF9 OE cells; M2 FLAG beads precipitate the AF9-associated complex; blots for endogenous transcription factors.
For test [2] the target is unchanged. The test can be described thus: co-IP; HA-Snail and FLAG-AF9 (WT or Y78A) cotransfected into MDA-MB-231 cells; IP with antibody against FLAG; blot.
The target of test [3] is HA-Snail (human (cDNA from MDA-MB-231 cells)) (UniProt O95863). The test is described as follows: co-IP; reverse co-IP: FLAG-AF9 and HA-Snail (WT, dN ter, dM, dC ter) cotransfected into MDA-MB-231 cells; IP with antibody against HA; blot.

Twist1 (from UniProt Q15672 1-202): the binding result in test [1] is reported as “no binding”.

Consider Snail (from UniProt O95863 1-264), for which the binding result in test [1] was “binds”.

On to HA-Snail (from UniProt O95863 1-264), for which the binding entry in test [2] is listed as “binds”.

Turning to FLAG-AF9 (from UniProt P42568 1-568), the binding result in test [3] is recorded as “binds”.

B1: Slug (protein, UniProt O43623 1-268)
chain: MPRSFLVKKHFNASKKPNYSELDTHTVIISPYLYESYSMPVIPQPEILSSGAYSPITVWTTAAPFHAQLPNGLSPLSGYSSSLGRVSPPPPSDTSSKDHSGSESPISDEEERLQSKLSDPHAIEAEKFQCNLCNKTYSTFSGLAKHKQLHCDAQSRKSFSCKYCDKEYVSLGALKMHIRTHTLPCVCKICGKAFSRPWLLQGHIRTHTGEKPFSCPHCNRAFADRSNLRAHLQTHSDVKKYQCKNCSKTFSRMSLLHKHEESGCCVAH
Consider B1, for which the binding result in test [1] was “no binding”.

B2: Twist2 (protein, UniProt Q8WVJ9 1-160)
chain: MEEGSSSPVSPVDSLGTSEEELERQPKRFGRKRRYSKKSSEDGSPTPGKRGKKGSPSAQSFEELQSQRILANVRERQRTQSLNEAFAALRKIIPTLPSDKLSKIQTLKLAARYIDFLYQVLQSDEMDNKMTSCSYVAHERLSYAFSVWRMEGAWSMSASH
Consider B2, for which the binding entry in test [1] is on record as “no binding”.

B3: ZEB2 (protein, UniProt O60315 1-1214)
chain: MKQPIMADGPRCKRRKQANPRRKNVVNYDNVVDTGSETDEEDKLHIAEDDGIANPLDQETSPASVPNHESSPHVSQALLPREEEEDEIREGGVEHPWHNNEILQASVDGPEEMKEDYDTMGPEATIQTAINNGTVKNANCTSDFEEYFAKRKLEERDGHAVSIEEYLQRSDTAIIYPEAPEELSRLGTPEANGQEENDLPPGTPDAFAQLLTCPYCDRGYKRLTSLKEHIKYRHEKNEENFSCPLCSYTFAYRTQLERHMVTHKPGTDQHQMLTQGAGNRKFKCTECGKAFKYKHHLKEHLRIHSGEKPYECPNCKKRFSHSGSYSSHISSKKCIGLISVNGRMRNNIKTGSSPNSVSSSPTNSAITQLRNKLENGKPLSMSEQTGLLKIKTEPLDFNDYKVLMATHGFSGTSPFMNGGLGATSPLGVHPSAQSPMQHLGVGMEAPLLGFPTMNSNLSEVQKVLQIVDNTVSRQKMDCKAEEISKLKGYHMKDPCSQPEEQGVTSPNIPPVGLPVVSHNGATKSIIDYTLEKVNEAKACLQSLTTDSRRQISNIKKEKLRTLIDLVTDDKMIENHNISTPFSCQFCKESFPGPIPLHQHERYLCKMNEEIKAVLQPHENIVPNKAGVFVDNKALLLSSVLSEKGMTSPINPYKDHMSVLKAYYAMNMEPNSDELLKISIAVGLPQEFVKEWFEQRKVYQYSNSRSPSLERSSKPLAPNSNPPTKDSLLPRSPVKPMDSITSPSIAELHNSVTNCDPPLRLTKPSHFTNIKPVEKLDHSRSNTPSPLNLSSTSSKNSHSSSYTPNSFSSEELQAEPLDLSLPKQMKEPKSIIATKNKTKASSISLDHNSVSSSSENSDEPLNLTFIKKEFSNSNNLDNKSTNPVFSMNPFSAKPLYTALPPQSAFPPATFMPPVQTSIPGLRPYPGLDQMSFLPHMAYTYPTGAATFADMQQRRKYQRKQGFQGELLDGAQDYMSGLDDMTDSDSCLSRKKIKKTESGMYACDLCDKTFQKSSSLLRHKYEHTGKRPHQCQICKKAFKHKHHLIEHSRLHSGEKPYQCDKCGKRFSHSGSYSQHMNHRYSYCKREAEEREAAEREAREKGHLEPTELLMNRAYLQSITPQGYSDSEERESMPRDGESEKEHEKEGEDGYGKLGRQDGDEEFEEEEEESENKSMDTDPETIRDEEETGDHSMDDSSEDGKMETKSDHEEDNMEDGM
With B3, the binding result in test [1] is “no binding”.
